Assay results: publication PMC3327698, “Binding Properties and Stability of the Ras-Association Domain of Rap1-GTP Interacting Adapter Molecule (RIAM)” (PLoS ONE, 2012)
Results are given in words; binding and its absence hold for the method and conditions named. Some entries that bind do so weakly or less than the wild type.

Key:
[1] = target: GST-RIAM150-261 (RA domain) (human) (UniProt Q7Z5R6); test: condition: only Rap1B loaded with GDP (0.05-1.0 µM); pull-down; quantitative: GST-RIAM on Glutathione Sepharose 4B; Rap1B-GDP at 0.05, 0.1, 0.3, 0.5, 0.7 and 1.0 µM; Buffer A; anti-Rap1 Western blot, densitometry; both purified
[2] = target: GST-RIAM1-176 (N-terminal fragment of Rap1-GTP interacting adapter molecule) (human) (UniProt Q7Z5R6); test: pull-down; quantitative: GST-RIAM on Glutathione Sepharose 4B; Rap1B-Gpp(NH)p at 0.05, 0.1, 0.3, 0.5, 0.7 and 1.0 µM; Buffer A; anti-Rap1 Western blot, densitometry, nonlinear regression (GraphPad Prism); both purified
[3] = target: GST-RIAM1-176 (N-terminal fragment of Rap1-GTP interacting adapter molecule) (human) (UniProt Q7Z5R6); test: pull-down; quantitative: GST-RIAM on Glutathione Sepharose 4B; Rap1B-GDP at 0.05, 0.1, 0.3, 0.5, 0.7 and 1.0 µM; Buffer A; anti-Rap1 Western blot, densitometry; both purified
[4] = target: GST-RIAM1-502 (N-terminus, RA and PH domains) (human) (UniProt Q7Z5R6); test: pull-down; GST-RIAM constructs on Glutathione Sepharose 4B; soluble 1 µM purified Rap1B-Gpp(NH)p, 1 h; Buffer A (50 mM Tris pH 7.5, 200 mM NaCl, 2 mM MgCl2, 10% glycerol, 1 mM DTT, 1% Triton X-100); anti-Rap1B Western blot; both purified
[5] = target: GST-RIAM1-261 (N-terminus to the end of the RA domain) (human) (UniProt Q7Z5R6); test: as above
[6] = target: GST-RIAM1-176 (N-terminal fragment of Rap1-GTP interacting adapter molecule) (human) (UniProt Q7Z5R6); test: as above
[7] = target: GST-RIAM150-261 (RA domain) (human) (UniProt Q7Z5R6); test: as above
[8] = target: T1, GST-RIAM150-502 (RA and PH domains) (human, UniProt Q7Z5R6 150-502); test: as above
T1 construct: Modified pGEX-4T3 vector with a TEV protease site; also called RA-PH domain pair; source: E. coli BL21 GOLD, purified (Glutathione Sepharose, SEC); not shown: GST, N-terminal, kept
T1 sequence (looked up): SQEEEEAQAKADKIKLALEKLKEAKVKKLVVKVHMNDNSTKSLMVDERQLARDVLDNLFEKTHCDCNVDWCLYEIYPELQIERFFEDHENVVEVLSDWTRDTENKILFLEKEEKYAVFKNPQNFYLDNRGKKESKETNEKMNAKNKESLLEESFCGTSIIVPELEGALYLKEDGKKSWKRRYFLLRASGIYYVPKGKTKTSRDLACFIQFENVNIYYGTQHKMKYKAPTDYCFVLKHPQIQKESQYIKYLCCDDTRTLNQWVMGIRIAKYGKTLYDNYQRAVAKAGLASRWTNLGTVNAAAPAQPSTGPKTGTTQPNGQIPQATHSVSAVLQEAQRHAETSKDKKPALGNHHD

B1: Rap1B (amino acids 1-167) (domain or fragment, UniProt P61224 1-167, looked up)
chain: MREYKLVVLGSGGVGKSALTVQFVQGIFVEKYDPTIEDSYRKQVEVDAQQCMLEILDTAGTEQFTAMRDLYMKNGQGFALVYSITAQSTFNDLQDLREQILRVKDTDDVPMILVGNKCDLEDERVVGKEQGQNLARQWNNCAFLESSAKSKINVNEIFYDLVRQINR
notes: small GTPase Rap1B, amino acids 1-167 (C-terminus excluded); loaded with Gpp(NH)p or GDP before the assay; One molecule for both nucleotide states; Construct pGEX-4T3/Rap1B came from A. Wittinghofer; also called Rap1B-Gpp(NH)p; Rap1B-GTP; source: E. coli BL21 GOLD, purified (Glutathione Sepharose, nucleotide exchange, SEC)
Q: Which results are given for B1?
A: binding [1]: no binding; binding [2]: binds; binding [3]: binds; binding [4]: binds; binding [5]: binds; binding [6]: binds; binding [7]: binds; binding [8]: binds
